Assay results: paper PMC10701612
Results are given in words; binding and its absence hold for the method and conditions named. In cells and extracts the contact can be indirect. Some binding calls cover weakened binding; strength is not graded here.

Chains of the proteins cited; added tags and fusions are not shown.
UniProt Q6PF93: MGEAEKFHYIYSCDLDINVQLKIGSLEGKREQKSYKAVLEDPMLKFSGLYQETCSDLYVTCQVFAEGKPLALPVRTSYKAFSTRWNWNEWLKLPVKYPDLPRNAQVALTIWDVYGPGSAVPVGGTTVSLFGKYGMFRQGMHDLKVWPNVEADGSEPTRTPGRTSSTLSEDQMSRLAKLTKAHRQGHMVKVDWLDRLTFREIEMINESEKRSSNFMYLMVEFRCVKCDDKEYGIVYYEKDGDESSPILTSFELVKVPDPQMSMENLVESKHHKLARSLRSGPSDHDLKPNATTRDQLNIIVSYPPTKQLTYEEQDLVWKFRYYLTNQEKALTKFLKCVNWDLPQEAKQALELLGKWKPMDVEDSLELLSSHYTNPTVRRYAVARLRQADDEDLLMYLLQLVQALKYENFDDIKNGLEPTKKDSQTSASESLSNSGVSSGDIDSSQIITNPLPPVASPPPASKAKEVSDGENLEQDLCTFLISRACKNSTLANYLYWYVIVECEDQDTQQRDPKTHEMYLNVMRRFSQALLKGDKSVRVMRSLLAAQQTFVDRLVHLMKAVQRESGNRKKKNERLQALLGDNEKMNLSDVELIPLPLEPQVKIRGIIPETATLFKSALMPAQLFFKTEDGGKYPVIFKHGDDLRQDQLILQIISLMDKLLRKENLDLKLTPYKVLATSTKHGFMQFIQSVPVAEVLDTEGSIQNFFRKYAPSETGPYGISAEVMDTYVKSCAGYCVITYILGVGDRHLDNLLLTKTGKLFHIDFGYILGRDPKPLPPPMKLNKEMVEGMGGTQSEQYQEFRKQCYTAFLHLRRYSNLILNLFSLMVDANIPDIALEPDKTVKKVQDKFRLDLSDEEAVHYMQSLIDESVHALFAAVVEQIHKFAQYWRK

T1: RUBICON (mouse (endogenous in BMDMs)) (UniProt Q80U62)
T1 sequence: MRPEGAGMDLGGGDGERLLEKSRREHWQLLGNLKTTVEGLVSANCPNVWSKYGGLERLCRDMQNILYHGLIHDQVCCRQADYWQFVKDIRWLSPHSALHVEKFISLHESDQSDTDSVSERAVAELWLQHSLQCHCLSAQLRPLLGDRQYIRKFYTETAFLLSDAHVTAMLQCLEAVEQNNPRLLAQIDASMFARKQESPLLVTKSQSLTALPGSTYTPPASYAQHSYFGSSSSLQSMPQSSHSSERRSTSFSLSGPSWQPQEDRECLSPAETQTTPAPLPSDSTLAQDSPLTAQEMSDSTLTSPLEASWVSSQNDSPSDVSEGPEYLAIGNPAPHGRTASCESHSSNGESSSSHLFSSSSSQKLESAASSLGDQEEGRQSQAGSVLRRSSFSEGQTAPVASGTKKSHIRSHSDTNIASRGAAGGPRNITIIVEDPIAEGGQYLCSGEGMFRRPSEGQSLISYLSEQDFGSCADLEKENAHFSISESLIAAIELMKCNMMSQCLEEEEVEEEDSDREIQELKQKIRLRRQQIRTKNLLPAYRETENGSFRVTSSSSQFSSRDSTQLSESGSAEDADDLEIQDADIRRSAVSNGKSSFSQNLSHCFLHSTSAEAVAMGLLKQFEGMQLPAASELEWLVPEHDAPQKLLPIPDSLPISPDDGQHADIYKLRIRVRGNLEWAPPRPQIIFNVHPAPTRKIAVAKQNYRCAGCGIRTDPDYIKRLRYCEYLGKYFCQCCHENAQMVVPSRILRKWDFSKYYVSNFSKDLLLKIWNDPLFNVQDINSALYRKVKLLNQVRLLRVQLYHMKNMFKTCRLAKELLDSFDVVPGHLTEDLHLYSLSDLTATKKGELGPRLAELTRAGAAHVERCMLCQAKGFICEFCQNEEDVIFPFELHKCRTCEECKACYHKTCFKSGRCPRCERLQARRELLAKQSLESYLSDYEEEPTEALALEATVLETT

B1: RUBICON (protein, UniProt Q80U62 1-956)
chain: T1 sequence

Key:
[1] = target: T1, RUBICON (mouse (endogenous in BMDMs)); test: co-IP; lysates of BMDMs treated with ACs, pre-treated with 1 μM COL or not; IP with a Vps34 or a Rubicon antibody overnight, Dynabeads protein G; IP lysis buffer 10 mM Tris-HCl pH 7.5, 2 mM EDTA, 1% NP40, 150 mM NaCl; Western blot
[2] = target: T1, RUBICON (mouse (endogenous in BMDMs)); test: co-IP; lysates of BMDMs treated with ACs, pre-treated with 3-MA (5 mM) and COL (1 μM); IP with a Rubicon antibody; Western blot
[3] = target: VPS34 (mouse (endogenous in BMDMs)) (UniProt Q6PF93); test: co-IP; lysates of BMDMs treated with ACs, pre-treated with 1 μM COL or not; IP with a Vps34 or a Rubicon antibody overnight, Dynabeads protein G; IP lysis buffer 10 mM Tris-HCl pH 7.5, 2 mM EDTA, 1% NP40, 150 mM NaCl; Western blot

Molecule | binding [1] | binding [2] | binding [3]
VPS34 (from UniProt Q6PF93 1-887) (enzyme) | binds | no binding (condition: BMDMs pre-treated with 3-MA (5 mM)) | 
B1 |  |  | binds
